Laboratory results from PubChem BioAssay AID504444 (National Center for Advancing Translational Sciences (NCATS), 2011).
Values joined by “and” are separate entries in the source; they are usually repeats but may differ in a detail not shown here. Identical values can stand only once. Among all 360,000 compounds or so, about 7,500 (2.1%) were called active. The shares of active, inactive and inconclusive entries below differ from those in the screen. Calls follow the shape of the dose curve; as a rule, active = well fitted inhibition curve with a large enough effect; inconclusive = small, poorly fitted or top-dose-only effect, or effect the other way; inactive = flat fitted curve, though single readings scatter. A potency beside an inconclusive call is a rough fit, not a confirmed value.

Test: Nrf2 qHTS screen for inhibitors; also: nearly all actives have a fitted effect of over 60% in size
Conditions: A549 ARE-Fluc reporter, luciferase luminescence, 18-24 h; series mostly up to 46 µM
How it was run: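 Reporter: ARE-Fluc in A549. Exposure: 18-24 h, 37 °C, 5% CO2, 5% FBS OPTI-MEM. Readouts: fluorescent cytotoxicity (CellTiter-Fluor), then luminescent Nrf2 signal after BugLite.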
Potency is read from the fitted curve at half-maximal effect.

SMILES	Potency
CC(C)NC(=O)C1CCN(Cc2cnn(-c3ccccc3)c2-n2cccc2)CC1	inconclusive: 25.9 µM [activator, partial curve, poor fit]
O=C(/C=C/c1cccc(C(F)(F)F)c1)Nc1cccc(C(F)(F)F)c1	inconclusive: 13 µM [falling, partial curve, poor fit]
COc1ccc(C(=O)COC(=O)C2CC3CCCC(C2)C3=O)cc1Br (stereo not given)	inactive
COc1cccc(CN2CCNC(=O)C2CC(=O)N(C)C2CCCCC2)c1 (stereo not given)	inconclusive: 0.82 µM [falling, partial curve, poor fit]
CC(C)N1CCN(S(=O)(=O)c2ccccc2)c2ccccc21	inconclusive: 25.9 µM [activator, single point]
CCOC(=O)N1CCN(C(=O)c2cc(COc3ccc(OC)cc3Cl)on2)CC1	inconclusive: 6.51 µM [activator, single point]
O=C(Nc1nnc(S(=O)(=O)N2CCCc3ccccc32)s1)c1ccccc1Cl	inconclusive: 29.1 µM [activator, single point]
O=C(/C=C/c1ccccc1Cl)Nc1ccc(Cl)cn1	inconclusive: 1.64 µM [activator, full curve]
O=C(Nc1ccccc1F)Nc1ccc([N+](=O)[O-])cc1Cl	inconclusive: 29.1 µM [falling, single point]
O=C(CNC(=O)c1ccccc1Cl)Nc1ccc(F)cc1	inconclusive: 14.6 µM [activator, partial curve, poor fit]
Cc1ccccc1Nc1nn2c(=O)c3ccccc3nc2s1	inconclusive: 1.3 µM [activator, full curve, poor fit]
CC(NC(=O)c1cc(COc2ccccc2)on1)c1nccs1 (stereo not given)	inconclusive: 1.3 µM [activator, full curve]
COc1ccccc1Nc1nc2nonc2nc1N1CCCCC1C (stereo not given)	inconclusive: 25.9 µM [falling, partial curve, poor fit]
Cc1ccc(-n2c(SCc3ccc(C#N)cc3)nnc2-c2ccccn2)cc1	inactive
O=C(CSCc1cnn(-c2ccccc2)c1-n1cccc1)NCc1ccc(Cl)cc1	inconclusive: 23.1 µM [falling, single point]
Cc1nc2ccn(Cc3ccccc3)c(=O)c2cc1C(=O)N1CCN(c2ccccc2F)CC1	inconclusive: 29.1 µM [activator, single point]
Cc1cc(C)cc(NC(=S)Nc2ccc(Cl)c(Cl)c2)c1	inconclusive: 14.6 µM [falling, partial curve, poor fit]
Cc1csc(NC(=O)C2CCN(S(=O)(=O)c3ccccc3)CC2)n1	inconclusive: 32.6 µM [falling, partial curve, poor fit]
Clc1ccc(CSc2nnc(-c3ccncc3)s2)cc1	inconclusive: 7.31 µM [falling, partial curve, poor fit]
COc1ccccc1CN(C)CC(=O)Nc1cccc(S(=O)(=O)N2CCCCC2)c1	inconclusive: 18.4 µM [falling, partial curve, poor fit]

SMILES	Potency
Cc1cc(F)ccc1S(=O)(=O)Nc1ccc2oc3c(c2c1)CC(C)CC3 (stereo not given)	inconclusive: 23.1 µM [falling, partial curve, poor fit]
CCOc1ccccc1C(=O)NC1(C(F)(F)F)NC(=O)N(CCc2ccc(OC)c(OC)c2)C1=O (stereo not given)	inconclusive: 20.6 µM [falling, partial curve]
CCC(C)Sc1cccc(-c2nc3cc(C)ccn3c2NC2CCCCC2)c1 (stereo not given)	inconclusive: 29.1 µM [falling, single point]
COc1ccc(S(=O)(=O)NCC(c2ccc(F)cc2)N2CCOCC2)cc1Br (stereo not given)	inconclusive: 20.6 µM [activator, single point]
COc1cc(OC)cc(-c2cc3nc(C)c(CCC(=O)NCc4ccccc4)c(C)n3n2)c1	active: 3.26 µM and active: 7.31 µM
CCOC(=O)N1CCN(c2ccc([N+](=O)[O-])cc2F)CC1C (stereo not given)	inconclusive: 11.6 µM [falling, partial curve]
CC1CCCN(CCOc2cccc(Oc3ccccc3)c2)C1 (stereo not given)	inconclusive: 18.4 µM [activator, partial curve]
CCN(CC)S(=O)(=O)c1cccc(C(=O)Nc2cc(C)nn2-c2ccccc2)c1	inactive
OCCC1CN(Cc2c(O)ccc3ccccc23)CCN1CCc1ccccc1 (stereo not given)	inconclusive: 32.6 µM [activator, single point]
C/C=C\C(=O)Nc1cccc(C2=NOC3(C2)C[C@@H](C(N)=O)N(C(=O)CC(c2ccccc2)c2ccccc2)C3)c1 (stereo not given in full)	inactive
CCN1CCN(Cc2ccc(NC(=O)c3cc(NC(=O)c4cc(-c5ccc(OC)cc5)n[nH]4)cc(OC)c3)cc2C(F)(F)F)CC1	inactive
CC(C)(C)NC(=O)C(c1ccc(O)cc1)N(Cc1ccco1)C(=O)CCC(=O)Nc1ccccn1 (stereo not given)	inconclusive: 2.06 µM [falling, partial curve, poor fit]
COc1cc(/C=C/C(=O)OC(C)C(=O)Nc2ccc(Cl)cn2)ccc1OC(F)F (stereo not given)	inconclusive: 29.1 µM [falling, single point]
NC(=O)c1c(NC(=O)c2cccnc2)sc2c1CCCCC2	inconclusive: 1.16 µM [activator, full curve]
Cc1ccc(-c2cc(-c3ccccc3)nc(N/N=C/c3cccnc3)n2)cc1	inconclusive: 20.6 µM [falling, single point]
O=C(Nc1ccc(N2C(=O)C3C4C=CC(C4)C3C2=O)cc1Cl)c1cccs1 (stereo not given)	inconclusive: 2.31 µM [activator, partial curve]
O=c1c([N+](=O)[O-])cccn1Cc1ccccc1Cl	inconclusive: 29.1 µM [falling, single point]
COc1ccc(Nc2nc(N)nc(N)c2S(=O)(=O)c2ccccc2)cc1	inconclusive: 20.6 µM [falling, single point]
Cc1ccc(-n2nc(CO)c(C(=O)NC(C)CCCc3ccccc3)n2)cc1 (stereo not given)	inactive
O=[N+]([O-])c1ccc2nc(NS(=O)(=O)c3ccccc3[N+](=O)[O-])sc2c1	inconclusive: 23.1 µM [activator, single point]

SMILES	Potency
CC1=CC(C)(C)Nc2ccc(Cc3ccc4c(c3)C(C)=CC(C)(C)N4)cc21	inconclusive: 23.1 µM [falling, partial curve, poor fit]
CCN(CC)P(=O)(Nc1ccc(C)cc1Br)c1ccc(N(C)C)cc1NC(=O)c1ccco1 (stereo not given)	inconclusive: 18.4 µM [falling, single point]
O=C(CSc1nc2c(sc3ccccc32)c(=O)n1CCCN1CCCC1)NCc1ccccc1	inconclusive: 9.2 µM [activator, partial curve, poor fit]
COc1ccc(OC)c(-c2nnc3n2N=C(c2ccc(OC)c(OC4CCCC4)c2)CS3)c1	active: 18.4 µM
CCc1nn2c(=O)cc(COC(=O)CNC(=O)COc3ccc(C)cc3)nc2s1	inconclusive: 0.13 µM [falling, full curve, poor fit]
Cc1ccc(-c2noc(CCC(=O)N3CCCc4ccccc43)n2)cc1	inconclusive: 5.8 µM [falling, partial curve, poor fit]
O=C(Nc1nc(-c2ccncc2)cs1)C1c2ccccc2Oc2ccccc21	active: 14.6 µM
CCC(=O)N1CCc2cc(S(=O)(=O)CCC(=O)N3CCN(c4ccc(Cl)cc4)CC3)ccc21	active: 18.4 µM and active: 16.4 µM
CCOCCCNC(=O)C1CCN(c2cc(C)nc3c(-c4ccc(OC)c(OC)c4)c(C)nn23)CC1	inconclusive: 18.4 µM [falling, partial curve]
CSc1nc(-c2ccco2)nn1C(=O)c1ccccc1Cl	inconclusive: 9.2 µM [falling, partial curve, poor fit]
CC(=O)Nc1ccc(NC(=O)c2ccc(-c3ccccc3Cl)o2)cc1	inconclusive: 32.6 µM [falling, single point]
CCCOc1ccc(CN(C(=O)Cc2coc3ccc(CC)cc23)C2CCS(=O)(=O)C2)cc1 (stereo not given)	inconclusive: 23.1 µM [falling, single point]
CCCn1c(=O)sc2cc(NC(=O)c3ccc(OC)c(Br)c3)ccc21	active: 16.4 µM
CC(OC(=O)Cn1[nH]c(=O)c2ccccc2c1=O)C(=O)c1ccccc1 (stereo not given)	inconclusive: 0.0651 µM [falling, partial curve, poor fit]
C=CCN1C(=O)C(O)(CC(=O)c2ccc(OC)cc2OC)c2cc(Br)ccc21 (stereo not given)	inconclusive: 5.8 µM [falling, full curve, poor fit]
COc1ccc(CNC(=O)CCCN2C(=O)NC3(CCCC3)C2=O)cc1	inconclusive: 29.1 µM [activator, single point]
Cc1ccc(Nc2nc(CSc3nnc(-c4ccncc4)n3C)cs2)cc1	inconclusive: 0.517 µM [activator, partial curve, poor fit]
Cc1ccc(S(=O)(=O)c2nc(S(=O)(=O)c3ccc(C)cc3)c(N3CCN(CCO)CC3)s2)cc1	inconclusive: 25.9 µM [falling, single point]
COc1ccc(CCNC(=O)c2ccc3c(c2)CCN3S(=O)(=O)c2ccc(C)cc2)cc1	inconclusive: 32.6 µM [falling, partial curve, poor fit]
Cn1c(=O)c2c(nc(CN3CCC(C(N)=O)CC3)n2CCCc2ccccc2)n(C)c1=O	inconclusive: 16.4 µM [activator, partial curve, poor fit]
